Results: article PMC3037350
No constants are given. Whether binding was seen depends on the method and setting. For some assays here: In cells and extracts the contact can be indirect. Some results given as binding are weak or reduced against the parent protein; the word gives no strength. For some assays here: Sequences can lack the tags named with a protein.

Chains of the proteins cited; added tags and fusions are not shown. Residues count along the entry.
UniProt B6KAM0, residues 67-569: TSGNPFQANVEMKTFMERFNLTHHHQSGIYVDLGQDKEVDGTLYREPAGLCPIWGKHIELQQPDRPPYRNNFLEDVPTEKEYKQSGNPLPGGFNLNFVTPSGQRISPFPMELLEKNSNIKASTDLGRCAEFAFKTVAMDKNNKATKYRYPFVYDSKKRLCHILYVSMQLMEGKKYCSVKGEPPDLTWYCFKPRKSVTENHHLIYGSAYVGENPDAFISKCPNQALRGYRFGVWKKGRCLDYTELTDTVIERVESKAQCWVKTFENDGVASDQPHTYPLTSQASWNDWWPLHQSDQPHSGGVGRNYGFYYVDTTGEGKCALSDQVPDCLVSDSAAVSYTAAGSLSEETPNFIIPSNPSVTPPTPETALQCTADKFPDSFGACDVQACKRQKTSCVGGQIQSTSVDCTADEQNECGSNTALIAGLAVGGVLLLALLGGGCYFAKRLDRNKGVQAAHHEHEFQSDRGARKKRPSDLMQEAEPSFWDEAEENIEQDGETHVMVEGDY

Experiments:
[1] = molecular target: native TgRON2 of T. gondii tachyzoites (T. gondii (endogenous in tachyzoites)) (UniProt B6KV60); test: co-IP; tachyzoite extract after 0.6% SDS lysis and Triton X100 renaturation; immunosorption with rabbit anti-RON2-1; AMA1 detected with MAb CL22
[2] = molecular target: native TgAMA1 of T. gondii tachyzoites (T. gondii (endogenous in tachyzoites)) (UniProt B6KAM0); test: far-Western, overlay or dot blot; tachyzoite lysate in non-reducing SDS sample buffer separated on 10% gel and transferred to nitrocellulose; membrane incubated with GST or TgRON2-2 at 100 µg/ml in PBS for 2 h; revealed with rat anti-GST; only the binder purified

Molecule	binding [1]	binding [2]
native TgAMA1 of T. gondii tachyzoites (from UniProt B6KAM0 67-569)	binds	
TgRON2-2 (GST-fused recombinant fragment of T. gondii RON2, V1295 to P1359) (domain or fragment, UniProt B6KV60 1295-1359) VADIVQHMEDIGGAPPVSCVTNEILGVTCAPQAIAKATTSAARVATQDFLKVGLFAGMAPYLMLP		binds
